Laboratory results taken from paper PMC11115230, “Mitotic deacetylase complex (MiDAC) recognizes the HIV-1 core promoter to control activated viral gene expression”.
Results are given in words; binding and its absence hold for the method and conditions named. In cells and extracts the contact can be indirect. Some entries that bind do so weakly or less than the wild type.

Protein sequences, listed by entry. Tags and fused reporters are not part of them.
UniProt Q13547: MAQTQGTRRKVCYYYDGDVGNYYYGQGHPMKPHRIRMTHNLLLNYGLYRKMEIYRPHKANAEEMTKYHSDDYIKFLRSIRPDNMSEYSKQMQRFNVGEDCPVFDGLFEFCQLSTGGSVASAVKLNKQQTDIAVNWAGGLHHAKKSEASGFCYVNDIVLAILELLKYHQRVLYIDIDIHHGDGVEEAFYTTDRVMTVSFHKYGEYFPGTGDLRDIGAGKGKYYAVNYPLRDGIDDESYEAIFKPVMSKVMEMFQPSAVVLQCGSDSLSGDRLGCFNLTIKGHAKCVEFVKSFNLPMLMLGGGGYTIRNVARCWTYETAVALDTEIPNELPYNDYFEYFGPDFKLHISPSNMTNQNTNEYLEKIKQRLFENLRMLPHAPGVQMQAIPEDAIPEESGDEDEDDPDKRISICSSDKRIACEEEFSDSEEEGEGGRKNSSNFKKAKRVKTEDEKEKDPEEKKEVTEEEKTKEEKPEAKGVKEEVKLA

T1: MIDEAS (human (endogenous in Jurkat)) (UniProt Q6PJG2)
T1 sequence: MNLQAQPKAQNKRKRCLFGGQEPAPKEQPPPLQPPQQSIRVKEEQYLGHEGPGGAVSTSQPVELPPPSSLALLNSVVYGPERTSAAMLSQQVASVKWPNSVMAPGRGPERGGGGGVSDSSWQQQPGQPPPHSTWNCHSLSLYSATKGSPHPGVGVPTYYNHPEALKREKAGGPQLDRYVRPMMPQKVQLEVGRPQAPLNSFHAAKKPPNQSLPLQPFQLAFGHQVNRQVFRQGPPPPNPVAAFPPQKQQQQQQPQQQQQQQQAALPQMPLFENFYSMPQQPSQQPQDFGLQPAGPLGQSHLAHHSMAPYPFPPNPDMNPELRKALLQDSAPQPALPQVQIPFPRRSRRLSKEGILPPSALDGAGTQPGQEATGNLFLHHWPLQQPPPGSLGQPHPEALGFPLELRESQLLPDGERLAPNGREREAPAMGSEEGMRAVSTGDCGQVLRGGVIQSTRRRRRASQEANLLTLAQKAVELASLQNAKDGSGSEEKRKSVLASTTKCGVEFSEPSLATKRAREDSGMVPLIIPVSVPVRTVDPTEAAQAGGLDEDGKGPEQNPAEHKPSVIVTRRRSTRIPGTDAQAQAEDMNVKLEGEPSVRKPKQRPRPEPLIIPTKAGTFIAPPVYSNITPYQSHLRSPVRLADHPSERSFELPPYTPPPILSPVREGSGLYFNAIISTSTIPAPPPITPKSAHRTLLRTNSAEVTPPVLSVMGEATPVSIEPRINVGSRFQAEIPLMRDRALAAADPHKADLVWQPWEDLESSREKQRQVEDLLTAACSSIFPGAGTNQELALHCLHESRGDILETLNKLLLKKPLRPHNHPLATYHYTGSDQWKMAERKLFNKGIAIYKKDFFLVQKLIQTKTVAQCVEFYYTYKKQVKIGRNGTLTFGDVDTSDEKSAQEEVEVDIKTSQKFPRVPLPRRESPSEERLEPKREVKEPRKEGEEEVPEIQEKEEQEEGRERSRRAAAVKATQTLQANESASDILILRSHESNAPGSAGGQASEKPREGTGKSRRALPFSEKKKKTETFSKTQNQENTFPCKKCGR

T2: NAT10 (human (endogenous in Jurkat)) (UniProt Q9H0A0)
T2 sequence: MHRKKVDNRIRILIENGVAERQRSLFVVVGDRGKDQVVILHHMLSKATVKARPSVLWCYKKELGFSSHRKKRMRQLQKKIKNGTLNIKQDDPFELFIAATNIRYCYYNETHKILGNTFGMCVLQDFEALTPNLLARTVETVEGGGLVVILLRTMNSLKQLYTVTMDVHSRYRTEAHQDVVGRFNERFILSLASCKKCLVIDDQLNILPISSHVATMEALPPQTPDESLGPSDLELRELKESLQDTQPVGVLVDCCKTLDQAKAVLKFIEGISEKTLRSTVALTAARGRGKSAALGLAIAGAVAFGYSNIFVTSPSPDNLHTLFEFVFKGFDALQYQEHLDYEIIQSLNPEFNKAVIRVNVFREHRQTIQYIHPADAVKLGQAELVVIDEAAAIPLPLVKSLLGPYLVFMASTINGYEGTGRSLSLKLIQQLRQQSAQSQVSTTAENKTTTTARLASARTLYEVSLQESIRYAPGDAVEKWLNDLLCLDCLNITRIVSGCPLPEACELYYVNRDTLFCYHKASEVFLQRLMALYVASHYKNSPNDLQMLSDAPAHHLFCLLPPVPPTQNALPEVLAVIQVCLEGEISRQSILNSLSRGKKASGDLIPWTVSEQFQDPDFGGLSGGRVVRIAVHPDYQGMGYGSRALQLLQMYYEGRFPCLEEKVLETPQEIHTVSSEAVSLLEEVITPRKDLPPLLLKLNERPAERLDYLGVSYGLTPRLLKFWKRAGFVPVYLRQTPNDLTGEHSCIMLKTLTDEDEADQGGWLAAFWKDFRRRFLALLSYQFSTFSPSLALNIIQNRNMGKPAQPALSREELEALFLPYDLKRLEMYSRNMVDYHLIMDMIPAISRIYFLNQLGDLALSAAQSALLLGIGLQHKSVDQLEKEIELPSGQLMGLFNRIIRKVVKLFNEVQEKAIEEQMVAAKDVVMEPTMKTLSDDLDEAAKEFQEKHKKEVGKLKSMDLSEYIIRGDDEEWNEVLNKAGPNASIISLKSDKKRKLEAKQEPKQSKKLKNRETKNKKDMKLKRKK

B1: MIDEAS (protein, UniProt Q6PJG2 1-1045)
chain: MNLQAQPKAQNKRKRCLFGGQEPAPKEQPPPLQPPQQSIRVKEEQYLGHEGPGGAVSTSQPVELPPPSSLALLNSVVYGPERTSAAMLSQQVASVKWPNSVMAPGRGPERGGGGGVSDSSWQQQPGQPPPHSTWNCHSLSLYSATKGSPHPGVGVPTYYNHPEALKREKAGGPQLDRYVRPMMPQKVQLEVGRPQAPLNSFHAAKKPPNQSLPLQPFQLAFGHQVNRQVFRQGPPPPNPVAAFPPQKQQQQQQPQQQQQQQQAALPQMPLFENFYSMPQQPSQQPQDFGLQPAGPLGQSHLAHHSMAPYPFPPNPDMNPELRKALLQDSAPQPALPQVQIPFPRRSRRLSKEGILPPSALDGAGTQPGQEATGNLFLHHWPLQQPPPGSLGQPHPEALGFPLELRESQLLPDGERLAPNGREREAPAMGSEEGMRAVSTGDCGQVLRGGVIQSTRRRRRASQEANLLTLAQKAVELASLQNAKDGSGSEEKRKSVLASTTKCGVEFSEPSLATKRAREDSGMVPLIIPVSVPVRTVDPTEAAQAGGLDEDGKGPEQNPAEHKPSVIVTRRRSTRIPGTDAQAQAEDMNVKLEGEPSVRKPKQRPRPEPLIIPTKAGTFIAPPVYSNITPYQSHLRSPVRLADHPSERSFELPPYTPPPILSPVREGSGLYFNAIISTSTIPAPPPITPKSAHRTLLRTNSAEVTPPVLSVMGEATPVSIEPRINVGSRFQAEIPLMRDRALAAADPHKADLVWQPWEDLESSREKQRQVEDLLTAACSSIFPGAGTNQELALHCLHESRGDILETLNKLLLKKPLRPHNHPLATYHYTGSDQWKMAERKLFNKGIAIYKKDFFLVQKLIQTKTVAQCVEFYYTYKKQVKIGRNGTLTFGDVDTSDEKSAQEEVEVDIKTSQKFPRVPLPRRESPSEERLEPKREVKEPRKEGEEEVPEIQEKEEQEEGRERSRRAAAVKATQTLQANESASDILILRSHESNAPGSAGGQASEKPREGTGKSRRALPFSEKKKKTETFSKTQNQENTFPCKKCGR

Experiments:
[1] = target: T1, MIDEAS (human (endogenous in Jurkat)); assay: co-IP; 0.75 to 1.5 ug antibody immobilised on protein G magnetic beads; 125 ug Jurkat nuclear extract added overnight at 4°C in IP100 buffer with 0.05% NP40; washes with IP150 buffer; SDS-PAGE and immunoblotting; no TASHET DNA added
[2] = target: T2, NAT10 (human (endogenous in Jurkat)); assay: as above

Molecule | binding [1] | binding [2]
HDAC1 (from UniProt Q13547 1-482) (enzyme) | binds | binds
B1 |  | binds
